Source: patent US5786447A (Astra AB, priority 1994, dated 1998)

Columns and labels:
[1] = peptide synthesis; details: coupling step, TFA salt
[2] = general procedure: hybrid (solid and solution phase) peptide synthesis; Fmoc-Sar-Sasrin resin (substitution 0.7 mmol/g); IBCF/NMM mixed anhydride (solution); DIC/HOBt (solid phase); DPPA for cyclisatio; details: TFA salt; for final HPLC purity: 216/280 nm

For Boc-D-Orn(Z)-2-Nal-D-Pro-Gly-ONb, which step yield [1] is on record?
The step yield was 80%.

With Boc-Tyr(NMe)-D-Orn-2-Nal-D-Pro-Gly-OH as the substance, how does the step yield ([2]; late stage modification step) read?
The step yield was 74%.

With Tyr(NMe)-c[-DOrn-2-Nal-D-Pro-Gly-] as the substance, how does the “final HPLC purity” value ([2]; late stage modification step, HPLC system I) read?
The value was 97% purity.

What about the step yield ([2]; late stage modification step) of the same substance?
Its step yield is 90%.

Which “final HPLC purity” value ([2]; cyclisation step, HPLC system II) does the source give for Boc-Tyr(NMe)-c[-D-Orn-2-Nal-D-Pro-Gly-] here?
Its value is 95% purity.

And the “final HPLC purity” value ([2]; cyclisation step, HPLC system IIa)?
Its value is 96% purity.

What about the cyclisation yield ([2]; cyclisation step) of the same substance?
Its cyclisation yield is 78%.

For “Boc-Tyr(NMe,Bzl)D-Orn(Z)-2-Nal-D-Pro-Gly-ONb”, which step yield [1] is on record?
Its step yield is 85%.

For H-Tyr-c[-D-Orn-2-Nal-D-Pro-Sar-], which “final HPLC purity” value ([2]; whole synthesis, HPLC system I, scale of the general procedure 0.3 g resin) is on record?
Its value is 97% purity.
